The other results are listed elsewhere or left out. These are further read-outs of the screen, such as a control signal, another cell line or another target. No call is given for them. Most of these compounds were active or inconclusive in the main read-out, so they are no random draw. Potencies come from curve fits of mixed quality, noted in brackets.

This experiment can be described thus: qHTS Assay for Lipid Storage Modulators in Drosophila S3 Cells.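 For cell number change: cells counted by Cell Tracker Red CMTPX staining in the red channel.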 As to conditions: BODIPY lipid droplet fluorescence, 18-24 h; for cell number change: measured here: cell count max response, cells fed with added oleic acid. The essentials: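 Drosophila S3 cells got compounds at several concentrations plus oleic acid (400 uM solution). Laser-scanning cytometry with 488 nm excitation read lipid droplets at 500-530 nm and cells at 575-640 nm. Percent activity was relative to 20 uM Triacsin C.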

Where [1] appears, read: measured here: lipid fluorescence (Fed channel) AC50, cells fed with added oleic acid.
Where [2] appears, read: measured here: cell number channel AC50, cells fed with added oleic acid.

Regarding `CSc1ccc(CN2C(=O)NC3(CCCCC3)C2=O)cc1`, the cell number change is 9.86%. For the same molecule, the half-maximal activity concentration (AC50) (in general, the concentration at which the activity in the assay is half-maximal) under setting [1] was 0.103 µM [falling, partial curve, poor fit].
For `CCOC(=O)CNc1nc(-c2ccncc2)nc2ccccc12`, the cell number change stood at 25%. Further, the AC50 under setting [2] was 0.103 µM [rising, full curve, poor fit]. Moreover, the concentration at half-maximal activity (AC50) under setting [1] is 3.66 µM [rising, partial curve].
Turning to `Cc1ccc(/C=C2/NC(=O)N(c3ccccc3)C2=O)o1`, the cell number change was -20%. Moreover, the AC50 under setting [1] was 29.1 µM [falling, single point].
Consider `CCc1ccc(NC(=O)C2CCCN2S(=O)(=O)c2ccc3c(c2)C(C)(C)C(=O)N3C)cc1` (centres undefined), for which the cell number change was -7.78%. Besides, the AC50 under setting [1] is 2.31 µM [falling, partial curve, poor fit].
`COc1cccc(OCCOc2ccc(/C=C3\C(=N)N4N=C(S(C)(=O)=O)SC4=NC3=O)cc2OC)c1`: the cell number change was -31.3%. Further, the AC50 under setting [2] is 29.1 µM [falling, single point]. Besides, the AC50 under setting [1] is 29.1 µM [falling, single point].
Consider `Nc1nc(N)c2ncc(C(=O)CCc3ccccc3)nc2n1`, for which the cell number change was -27.7%. For the same molecule, the AC50 under setting [2] was 0.13 µM [rising, full curve, poor fit].
In the case of `Cc1ccc(CNC(=O)c2ccc[nH]2)cc1`, the AC50 under setting [1] was 6.51 µM [falling, single point].
In the case of `COc1ccccc1CCC(=O)OCC(=O)N1c2ccccc2NC(=O)C1(C)C`, the cell number change stood at 11.6%.
In the case of `COc1ccc(C)cc1S(=O)(=O)Nc1ccccc1C`, the cell number change is -4.06%. Further, the AC50 under setting [2] was 0.82 µM [rising, partial curve].
With `CCCC[n+]1c2ccccc2cc2ccccc21`, the cell number change was -29.7%. The AC50 under setting [1] was 29.1 µM [falling, single point].
For the molecule `COC(=O)c1cc(NC(=O)Nc2ccccc2OC)cc(C(=O)OC)c1`, the cell number change was 67.9%. Besides, under setting [2], the AC50 was 0.259 µM [rising, full curve]. Moreover, the concentration at half-maximal activity (AC50) under setting [1] was 0.13 µM [rising, full curve, poor fit].
On to `O=[N+]([O-])c1cc(S(=O)(=O)N2CCCC2)ccc1N/N=C1/CCCc2ccccc21`, for which the cell number change was -37.3%. The AC50 under setting [2] is 5.8 µM [falling, full curve]. Further, the AC50 under setting [1] was 5.8 µM [falling, full curve].
For `Nc1nc(SCC(=O)NN(c2ccccc2)c2ccccc2)n[nH]1`, the AC50 under setting [1] is 0.103 µM [rising, full curve, poor fit].
In the case of `Cc1cccc(NC(=O)CSc2nnc([C@H](C)NC(=O)OC(C)(C)C)o2)c1C`, the cell number change was determined as 22%. Moreover, the AC50 under setting [1] was 14.6 µM [rising, partial curve].
For the molecule `NC(=O)c1ccc(NC(=O)COC(=O)C(Cc2ccccc2)NC(=O)c2ccccc2)cc1` (centres undefined), the cell number change amounted to 11.8%. For the same molecule, under setting [1], the AC50 was 6.51 µM [falling, single point].
Take `Cc1ccc(C(=O)NCC(C)(C)N2CCOCC2)s1`: the cell number change is -27.6%. In addition, under setting [2], the AC50 was 0.82 µM [falling, full curve, poor fit]. Besides, the AC50 under setting [1] was 5.8 µM [falling, partial curve].

The values above are taken from PubChem BioAssay AID2685 (National Center for Advancing Translational Sciences (NCATS), 2010).
